Data taken from paper PMC6572760.
No constants are given. Whether binding was seen depends on the method and setting. In cells and extracts the contact can be indirect. These calls come from enrichment with a bait or labelling near it, and not all partners need be listed. Tags and fused reporters may be left off the sequences shown.

Amino acid sequences for entries named in this document (tags omitted).
UniProt Q06681: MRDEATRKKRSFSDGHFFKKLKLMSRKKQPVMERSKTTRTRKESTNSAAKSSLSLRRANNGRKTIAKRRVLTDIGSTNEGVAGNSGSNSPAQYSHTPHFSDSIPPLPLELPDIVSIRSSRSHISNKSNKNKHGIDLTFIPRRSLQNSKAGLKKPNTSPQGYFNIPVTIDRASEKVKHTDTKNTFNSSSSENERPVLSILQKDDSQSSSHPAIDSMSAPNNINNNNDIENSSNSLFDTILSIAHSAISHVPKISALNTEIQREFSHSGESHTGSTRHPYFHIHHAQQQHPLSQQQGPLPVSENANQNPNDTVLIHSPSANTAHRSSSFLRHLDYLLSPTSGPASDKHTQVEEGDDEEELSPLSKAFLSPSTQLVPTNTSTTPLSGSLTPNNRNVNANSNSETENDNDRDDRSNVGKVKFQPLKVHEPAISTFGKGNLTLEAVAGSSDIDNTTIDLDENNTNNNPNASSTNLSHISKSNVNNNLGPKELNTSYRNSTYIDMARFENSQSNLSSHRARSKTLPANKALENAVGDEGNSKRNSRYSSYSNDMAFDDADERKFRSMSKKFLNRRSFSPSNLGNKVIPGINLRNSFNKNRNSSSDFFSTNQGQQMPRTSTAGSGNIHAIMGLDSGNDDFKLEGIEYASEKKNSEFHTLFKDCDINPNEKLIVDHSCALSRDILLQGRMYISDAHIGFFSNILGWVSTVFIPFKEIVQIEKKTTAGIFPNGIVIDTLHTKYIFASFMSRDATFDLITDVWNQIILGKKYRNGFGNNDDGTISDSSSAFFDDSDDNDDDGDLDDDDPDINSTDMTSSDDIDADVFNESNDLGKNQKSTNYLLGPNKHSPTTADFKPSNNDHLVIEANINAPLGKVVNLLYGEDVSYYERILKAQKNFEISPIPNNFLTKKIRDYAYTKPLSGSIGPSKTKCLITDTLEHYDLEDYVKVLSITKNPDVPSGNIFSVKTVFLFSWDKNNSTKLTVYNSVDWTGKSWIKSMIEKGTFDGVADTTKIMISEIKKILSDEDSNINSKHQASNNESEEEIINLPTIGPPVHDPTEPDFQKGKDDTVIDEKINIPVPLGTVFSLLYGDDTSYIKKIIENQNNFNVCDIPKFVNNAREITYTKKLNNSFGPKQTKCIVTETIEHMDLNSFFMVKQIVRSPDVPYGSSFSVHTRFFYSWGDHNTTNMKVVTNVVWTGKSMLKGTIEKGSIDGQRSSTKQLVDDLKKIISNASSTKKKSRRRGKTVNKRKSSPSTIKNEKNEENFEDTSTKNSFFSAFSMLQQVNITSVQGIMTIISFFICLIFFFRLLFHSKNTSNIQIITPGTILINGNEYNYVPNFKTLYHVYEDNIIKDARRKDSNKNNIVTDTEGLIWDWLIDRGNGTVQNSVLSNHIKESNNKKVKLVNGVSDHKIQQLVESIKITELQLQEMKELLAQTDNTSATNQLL

What was measured:
Assay in all cases: proximity labelling; M-track protein-protein proximity assay in living yeast: bait fused to HKMTmyc tri-methylates the H3 moiety of Hog1-protA-H3 on close proximity; cells treated with 1 M sorbitol for 40 min (unstressed cells also tested); me3K9H3 over HA signal by Western blot of urea extracts, compared with a strain expressing only Hog1-protA-H3
[1] = target: T1, Psp2-HKMTmyc (S. cerevisiae) (UniProt P50109)
T1 sequence: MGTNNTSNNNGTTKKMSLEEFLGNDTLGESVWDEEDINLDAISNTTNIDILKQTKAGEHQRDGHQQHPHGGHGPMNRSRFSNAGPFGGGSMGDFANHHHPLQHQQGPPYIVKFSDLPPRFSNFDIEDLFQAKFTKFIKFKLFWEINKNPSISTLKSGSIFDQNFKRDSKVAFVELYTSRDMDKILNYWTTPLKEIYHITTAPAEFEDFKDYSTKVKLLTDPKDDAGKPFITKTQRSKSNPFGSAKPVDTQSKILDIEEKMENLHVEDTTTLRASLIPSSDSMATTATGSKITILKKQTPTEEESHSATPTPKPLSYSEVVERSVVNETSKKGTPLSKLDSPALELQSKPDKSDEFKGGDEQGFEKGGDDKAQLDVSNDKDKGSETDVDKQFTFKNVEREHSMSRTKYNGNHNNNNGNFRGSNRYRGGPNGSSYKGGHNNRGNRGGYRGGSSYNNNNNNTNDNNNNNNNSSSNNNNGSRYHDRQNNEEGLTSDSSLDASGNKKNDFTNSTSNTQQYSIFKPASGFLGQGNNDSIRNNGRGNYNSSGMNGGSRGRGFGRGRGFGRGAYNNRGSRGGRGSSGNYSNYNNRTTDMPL

[2] = target: T2, Sog2-HKMTmyc (S. cerevisiae) (UniProt Q08817)
T2 sequence: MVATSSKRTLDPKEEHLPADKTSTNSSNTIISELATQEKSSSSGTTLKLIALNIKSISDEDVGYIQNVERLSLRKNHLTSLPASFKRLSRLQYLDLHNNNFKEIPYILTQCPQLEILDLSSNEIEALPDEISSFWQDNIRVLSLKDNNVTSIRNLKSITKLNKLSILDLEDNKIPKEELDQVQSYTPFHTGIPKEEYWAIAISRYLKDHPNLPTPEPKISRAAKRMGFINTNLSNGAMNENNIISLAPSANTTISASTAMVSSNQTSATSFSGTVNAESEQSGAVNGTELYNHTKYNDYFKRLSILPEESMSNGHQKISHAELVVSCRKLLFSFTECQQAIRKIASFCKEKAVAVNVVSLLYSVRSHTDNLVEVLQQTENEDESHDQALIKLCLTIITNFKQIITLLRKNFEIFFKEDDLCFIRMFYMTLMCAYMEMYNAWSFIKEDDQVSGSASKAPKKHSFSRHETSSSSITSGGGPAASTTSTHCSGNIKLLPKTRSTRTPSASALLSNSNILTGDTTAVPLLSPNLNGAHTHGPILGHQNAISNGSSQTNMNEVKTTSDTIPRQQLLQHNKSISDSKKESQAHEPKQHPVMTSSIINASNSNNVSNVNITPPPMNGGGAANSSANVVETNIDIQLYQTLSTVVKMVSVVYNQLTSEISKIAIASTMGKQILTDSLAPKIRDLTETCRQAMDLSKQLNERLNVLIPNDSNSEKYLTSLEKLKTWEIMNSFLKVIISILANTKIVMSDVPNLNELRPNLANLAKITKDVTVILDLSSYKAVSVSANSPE

[3] = target: T3, Ubp13-HKMTmyc (S. cerevisiae) (UniProt P38187)
T3 sequence: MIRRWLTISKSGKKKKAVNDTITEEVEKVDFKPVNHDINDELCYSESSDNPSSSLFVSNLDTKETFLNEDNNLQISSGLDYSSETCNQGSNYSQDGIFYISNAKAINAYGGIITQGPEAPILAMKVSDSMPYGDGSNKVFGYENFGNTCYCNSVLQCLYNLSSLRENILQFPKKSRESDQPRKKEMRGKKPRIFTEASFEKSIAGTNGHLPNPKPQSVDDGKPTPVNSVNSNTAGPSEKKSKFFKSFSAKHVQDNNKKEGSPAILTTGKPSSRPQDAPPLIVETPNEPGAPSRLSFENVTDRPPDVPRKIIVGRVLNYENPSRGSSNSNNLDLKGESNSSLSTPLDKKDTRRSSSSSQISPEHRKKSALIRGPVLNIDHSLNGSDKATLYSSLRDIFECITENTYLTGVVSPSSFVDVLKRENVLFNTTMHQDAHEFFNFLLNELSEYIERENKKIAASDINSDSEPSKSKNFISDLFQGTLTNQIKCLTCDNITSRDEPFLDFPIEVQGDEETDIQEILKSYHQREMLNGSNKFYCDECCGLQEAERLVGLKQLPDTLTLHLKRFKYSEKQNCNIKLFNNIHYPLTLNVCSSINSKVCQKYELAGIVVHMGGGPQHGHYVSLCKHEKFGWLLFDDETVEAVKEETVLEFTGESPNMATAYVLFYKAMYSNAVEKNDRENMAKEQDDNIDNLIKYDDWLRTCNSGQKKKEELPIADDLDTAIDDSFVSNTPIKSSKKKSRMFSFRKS

[4] = target: Ysp2-HKMTmyc (C-terminal fusion) (S. cerevisiae) (UniProt Q06681)

Measured: binding

B1: Hog1-TEV-ProteinA-Histone3-HA (enzyme, UniProt P32485 1-435)
chain: MTTNEEFIRTQIFGTVFEITNRYNDLNPVGMGAFGLVCSATDTLTSQPVAIKKIMKPFSTAVLAKRTYRELKLLKHLRHENLICLQDIFLSPLEDIYFVTELQGTDLHRLLQTRPLEKQFVQYFLYQILRGLKYVHSAGVIHRDLKPSNILINENCDLKICDFGLARIQDPQMTGYVSTRYYRAPEIMLTWQKYDVEVDIWSAGCIFAEMIEGKPLFPGKDHVHQFSIITDLLGSPPKDVINTICSENTLKFVTSLPHRDPIPFSERFKTVEPDAVDLLEKMLVFDPKKRITAADALAHPYSAPYHDPTDEPVADAKFDWHFNDADLPVDTWRVMMYSEILDFHKIGGSDGQIDISATFDDQVAAATAAAAQAQAQAQAQVQLNMAAHSHNGAGTTGNDHSDIAGGNKVSDHVAANDTITDYGNQAIQYANEFQQ
binds: all assays above
